One substance from paper PMC4990909 can be followed below.

Protein sequences, listed by entry. Tags and fused reporters are not part of them.
UniProt Q1HFZ0: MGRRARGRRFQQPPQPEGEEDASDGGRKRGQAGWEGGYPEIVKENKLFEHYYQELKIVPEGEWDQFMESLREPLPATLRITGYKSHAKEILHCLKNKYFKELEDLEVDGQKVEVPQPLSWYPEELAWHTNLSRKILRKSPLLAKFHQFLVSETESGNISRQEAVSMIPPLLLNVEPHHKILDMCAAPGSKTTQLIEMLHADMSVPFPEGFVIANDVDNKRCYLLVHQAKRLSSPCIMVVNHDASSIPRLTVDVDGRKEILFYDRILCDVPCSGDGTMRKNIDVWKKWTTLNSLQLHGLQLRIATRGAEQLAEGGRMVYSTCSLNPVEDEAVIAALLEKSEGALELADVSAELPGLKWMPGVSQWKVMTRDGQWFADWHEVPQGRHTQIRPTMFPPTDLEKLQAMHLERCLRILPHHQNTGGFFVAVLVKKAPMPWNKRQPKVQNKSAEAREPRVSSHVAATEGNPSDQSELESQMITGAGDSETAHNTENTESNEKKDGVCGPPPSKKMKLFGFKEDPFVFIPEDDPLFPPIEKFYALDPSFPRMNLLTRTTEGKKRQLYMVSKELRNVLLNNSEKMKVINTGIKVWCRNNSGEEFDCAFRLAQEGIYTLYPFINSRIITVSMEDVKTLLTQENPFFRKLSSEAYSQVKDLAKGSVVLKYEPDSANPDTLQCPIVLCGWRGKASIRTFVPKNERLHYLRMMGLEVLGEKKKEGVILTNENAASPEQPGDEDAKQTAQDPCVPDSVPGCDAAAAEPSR
UniProt P62137: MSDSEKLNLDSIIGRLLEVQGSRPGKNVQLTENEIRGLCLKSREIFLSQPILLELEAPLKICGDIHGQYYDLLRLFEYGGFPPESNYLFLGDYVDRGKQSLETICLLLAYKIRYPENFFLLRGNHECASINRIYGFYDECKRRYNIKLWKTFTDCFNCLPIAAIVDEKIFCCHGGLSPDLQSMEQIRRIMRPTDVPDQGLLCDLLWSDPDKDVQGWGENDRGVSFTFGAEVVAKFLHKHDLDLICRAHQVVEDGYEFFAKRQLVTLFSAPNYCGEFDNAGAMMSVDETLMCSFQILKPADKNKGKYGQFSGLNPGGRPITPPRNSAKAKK

These are yes or no findings as the source states them, for the method shown. In cells and extracts the contact can be indirect. Some binding calls cover weakened binding; strength is not graded here.

For assay [1], the target named is NOP2/Sun RNA methyltransferase (NSun2) (mouse (endogenous in LβT2)) (UniProt Q1HFZ0). Put plainly: co-IP; endogenous proteins; LβT2 cells with 10 nM GnRHa for 8 h; cells cross-linked in 1% formaldehyde for 10 min; RIPA lysate incubated overnight with 5 μg anti-Nsun2 antibody and Protein G Dynabeads; blot with anti-PP1CA.
The target is the same in assay [2]. Put plainly: co-IP; endogenous proteins; LβT2 cells with 10 nM GnRHa for 4 h; cells cross-linked in 1% formaldehyde for 10 min; RIPA lysate incubated overnight with 5 μg anti-Nsun2 antibody and Protein G Dynabeads; blot with anti-PP1CA.

With “catalytic subunit of PP1α (PPP1CA) (from UniProt P62137 1-330) (enzyme)”, the binding result is reported as “binds” in assay [1] and “no binding (condition: after 4 h of 10 nM GnRHa)” in assay [2].
